# Measured values taken from PubChem BioAssay AID504444 (National Center for Advancing Translational Sciences (NCATS), 2011).
# In all, about 360,000 compounds went through this assay and about 7,500 (2.1%) were called active. Inconclusive means that the source gave no clear call. Such entries were picked first, then a sample of the others. Calls come from the whole dose curve; as a rule, active = well fitted inhibition curve with a large enough effect; inconclusive = small, poorly fitted or top-dose-only effect, or effect the other way; inactive = flat fitted curve, though single readings scatter. Potencies of inconclusive entries are doubtful fits and often do not repeat.
# Experiment: Nrf2 qHTS screen for inhibitors; note: nearly all actives have a fitted effect of over 60% in size
# Details: A549 ARE-Fluc reporter, luciferase luminescence, 18-24 h; activity change, negative = inhibition: at 46 µM (top of the series)
# In short: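 Reporter: ARE-Fluc in A549. Exposure: 18-24 h, 37 °C, 5% CO2, 5% FBS OPTI-MEM. Readouts: fluorescent cytotoxicity (CellTiter-Fluor), then luminescent Nrf2 signal after BugLite.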
# % is set by controls: 0 for no effect and ±100 for the full control effect; potency is the fitted concentration of half-maximal effect.
SMILES,Potency,"activity change, negative = inhibition"
Cc1ccc(/C=N/Nc2ccc(C(=O)O)cc2)s1,"inconclusive: 9.2 µM [activator, partial curve]",–
CCn1c(C(=O)N2CCCC(C(=O)N3CCN(c4cc(C)ccc4C)CC3)C2)cc2sccc21 (stereo not given),"inconclusive: 23.1 µM [falling, partial curve, poor fit]",–
COCCCNC(=O)/C=C/c1ccc(Cl)cc1,"inconclusive: 8.2 µM [activator, partial curve, poor fit]",–
Cc1ccc(NC(=O)C2CCC(N3C(=O)C4CCCCC4C3=O)CC2)cc1 (stereo not given),"inconclusive: 23.1 µM [falling, single point]",–
COc1ccccc1N(CC(=O)N/N=C(\C)c1ccccc1O)S(=O)(=O)c1ccc(C)cc1,"inconclusive: 4.11 µM [falling, full curve, poor fit]",–
O=C(Nc1ccc(N2CCOCC2)c(S(=O)(=O)Nc2ccc(Cl)cc2)c1)c1ccc(=O)[nH]n1,"inconclusive: 29.1 µM [falling, single point]",–
Clc1ccc(-c2nnc(-c3cccc4ccccc34)o2)cc1,"inconclusive: 6.51 µM [activator, partial curve]",–
Clc1ccc(Cn2nnc3ccccc32)cc1,"inconclusive: 20.6 µM [activator, partial curve, poor fit]",–
O=C1NCCN(Cc2cccc(Oc3ccccc3)c2)C1CC(=O)N1CCCO1 (stereo not given),"inconclusive: 0.146 µM [falling, full curve, poor fit]",–
COc1ccc2occ(C(=O)c3cccs3)c2c1,"inconclusive: 18.4 µM [activator, partial curve]",–
COc1c(/C=N/NC(=O)[C@H]2C[C@@H]2c2ccccc2)c(CCN(C)C(C)=O)cc2c1OCO2,–,inactive: -13.4%
CCCCOc1ccc(CSC(=N)N)cc1[N+](=O)[O-],"inconclusive: 29.1 µM [activator, single point]",–
O=C(NC(=S)Nc1ccc(Cc2ccncc2)cc1)c1ccc(F)cc1,active: 5.8 µM,–
CCCc1ccc(C(C)NC(=S)NCc2ccc(F)cc2)cc1 (stereo not given),"inconclusive: 16.4 µM [falling, single point]",–
O=C(Nc1c(C(=O)N2CCN(c3ccccc3)CC2)oc2ccccc12)c1ccco1,"inconclusive: 3.66 µM [falling, partial curve, poor fit]",–
CCOC(=O)N1CCN(C(=O)c2ccc3c(c2)N(Cc2ccc(F)cc2)CCS3)CC1,"inconclusive: 29.1 µM [falling, single point]",–
COc1ccc(NC(=S)NC(=NS(=O)(=O)c2ccc(Cl)cc2)c2ccccc2)cc1,"inconclusive: 23.1 µM [activator, partial curve, poor fit]",–
CC(C)c1ccc(NC(=O)COC(=O)[C@@H]2CCCN2C(=O)c2cccs2)cc1,–,inactive: 17.3%
Cc1c(C(=O)NCCc2ccc(Cl)cc2)sc2nc3n(c(=O)c12)CCCC3,"inconclusive: 16.4 µM [falling, partial curve]",–
C/C(=N\Nc1ccc(F)cc1)c1ccc(N2CCOCC2)c(F)c1,–,inactive: 3.41%
COc1ccc(-c2noc3c2-c2nc(C(C)C)sc2CC3)cc1,"inconclusive: 20.6 µM [activator, partial curve]",–
O=C1c2cccc3cc([N+](=O)[O-])cc(c23)C(=O)N1/N=C/c1ccc(O)cc1O,"inconclusive: 29.1 µM [falling, single point]",–

SMILES,Potency,"activity change, negative = inhibition"
CCc1ccccc1N(C1=NCCCS1)S(=O)(=O)c1ccc(C(C)(C)C)cc1,"inconclusive: 18.4 µM [falling, single point]",–
Cc1cccc(NC(=S)N2CCCCC2)c1,"inconclusive: 25.9 µM [activator, single point]",–
Oc1ccc(NC(=S)N=Nc2c(O)[nH]c3ccccc23)cc1,"inconclusive: 20.6 µM [activator, single point]",–
CC1CCCN(S(=O)(=O)c2ccc(C(=O)Nc3nnc(-c4ccncc4)o3)cc2)C1 (stereo not given),active: 8.2 µM,–
COC(=O)Cc1ccc(OCC(=O)Nc2ccc(OC(F)(F)F)cc2)cc1,"inconclusive: 16.4 µM [falling, single point]",–
O=[N+]([O-])c1cccc(CSC2=NCCN2S(=O)(=O)c2ccccc2)c1,"inconclusive: 18.4 µM [falling, partial curve, poor fit]",–
COC(=O)c1ccccc1NC(=O)Cn1nnc(-c2ccc3c(c2)OCO3)n1,–,inactive: 6.64%
Cc1ccc(C2=Nc3ccccc3N(CC(=O)NCc3ccccc3Cl)C(=O)C2)cc1C,–,inactive: -22.1%
O=C(c1ccccc1)c1cc2cc(Cl)ccc2[nH]1,"inconclusive: 23.1 µM [activator, single point]",–
Cc1ccc(C(CC(=O)O)NC(=O)c2ccc(S(=O)(=O)N3CCCC3)cc2)cc1 (stereo not given),–,inactive: 0.991%
Cc1cccc(N2CCc3c2nc2ccc(Br)cc2c3N)c1,"inconclusive: 29.1 µM [activator, single point]",–
COc1ccc(N2Cc3cccc(C(=O)Nc4ccc(F)cc4)c3C2=O)cc1,"inconclusive: 10.3 µM [activator, partial curve, poor fit]",–
CC(=O)Nc1ccc(Oc2cc(C#N)c(C#N)cc2N2CCCCCC2)cc1,"inconclusive: 23.1 µM [falling, single point]",–
O=C(O)c1c(-c2ccc(Cl)cc2)cn2ccccc12,"inconclusive: 20.6 µM [activator, single point]",–
COc1ccc(NC(=O)C(Cl)=C(Cl)Cl)cn1,–,inactive: -4.73%
CCc1nnc(NC(=O)c2cccnc2)s1,"inconclusive: 13 µM [activator, partial curve]",–
CCOC(=O)Cc1csc(NC(=O)Nc2cccs2)n1,"inconclusive: 6.51 µM [activator, full curve]",–
CC1CCCC(=NNc2ccc3ccccc3n2)C1 (stereo not given),"inconclusive: 23.1 µM [activator, partial curve]",–
Cc1ccnc(N2C(=O)c3ccccc3C2Nc2ccc3c(c2)OCCO3)c1 (stereo not given),"inconclusive: 16.4 µM [activator, single point]",–
CCOc1ccc(NC(=O)c2oc3ccccc3c2NC(=O)c2c(F)cccc2F)cc1,–,inactive: -7.45%
Cc1cc(=O)c2ccccc2[nH]1,"inconclusive: 2.06 µM [falling, full curve, poor fit]",–
N#CCOc1nc(N2CCCC2)nc(N2CCCC2)n1,"inconclusive: 2.31 µM [falling, partial curve, poor fit]",–

# Already shown: entries from further up.
SMILES,Potency,"activity change, negative = inhibition"
CC(=O)Nc1ccc(Oc2cc(C#N)c(C#N)cc2N2CCCCCC2)cc1,"inconclusive: 23.1 µM [falling, single point]",–
O=C(O)c1c(-c2ccc(Cl)cc2)cn2ccccc12,"inconclusive: 20.6 µM [activator, single point]",–
COc1ccc(NC(=O)C(Cl)=C(Cl)Cl)cn1,–,inactive: -4.73%

# Next part

SMILES,Potency,"activity change, negative = inhibition"
CCCCCNC(=O)c1ccc2c(=O)n(CCCN3CCCC3=O)c(=S)[nH]c2c1,"inconclusive: 29.1 µM [falling, single point]",–
O=C(O)C1CCc2nc(NCc3ccccc3)nc(NCc3ccccc3)c2C1 (stereo not given),–,inactive: 24.9%
CN(C)c1ccc(C2(c3ccc(N(C)C)cc3)OC(=O)c3cc(N)ccc32)cc1,"inconclusive: 18.4 µM [falling, partial curve, poor fit]",–
Cc1ccc2nc(CNC(=O)c3ccccc3)[nH]c2c1,"inconclusive: 2.91 µM [activator, full curve]",–
CCN1C(=O)c2cccc3c(S(=O)(=O)NCC4CCCO4)ccc1c23 (stereo not given),"inconclusive: 29.1 µM [falling, single point]",–
CCCCCCSc1ccc([C@H]2N[C@@](C)(C(=O)OC)[C@H]3C(=O)N(C)C(=O)[C@@H]23)cc1,active: 25.9 µM,–
CC(=O)Nc1cccc(NC(=O)c2cccc(-c3ccc(O)cc3)c2)c1,"inconclusive: 5.8 µM [activator, partial curve]",–
S=C(NCc1ccccc1)Nc1ccc2ccccc2c1,"inconclusive: 4.61 µM [activator, full curve]",–
COCC1CCCN(C(=O)c2cc(COc3cncc(Cl)c3)on2)C1 (stereo not given),"inconclusive: 32.6 µM [falling, partial curve, poor fit]",–
CC(C)(C)OC(=O)NCCCCCNC(=O)c1nc[nH]c1C(=O)NCc1ccc(CNC(=O)OC(C)(C)C)cc1,active: 13 µM,–
Cc1ccc(C(=O)O/N=C(\N)c2cccc([N+](=O)[O-])c2)cc1,"inconclusive: 2.06 µM [activator, full curve, poor fit]",–
Cc1ccc2nc(-c3ccc(NC(=O)COc4ccccc4)cc3)sc2c1,"inconclusive: 0.259 µM [activator, full curve, poor fit]",–
CCN(c1cccc(C)c1)S(=O)(=O)c1nnc(NC(=O)c2ccccc2Cl)s1,"inconclusive: 0.058 µM [activator, full curve, poor fit]",–
CCCCc1cc(=O)oc2cc(OCC(=O)N3CCC(C(N)=O)CC3)ccc12,"inconclusive: 0.366 µM [falling, partial curve, poor fit]",–
Cc1c(C(=O)N2CCCCC2)oc2ccccc12,"inconclusive: 13 µM [activator, partial curve]",–
CCOC(=O)c1ccc(NC(=O)CSc2nc(=O)n3cccc(C)c3n2)cc1,"inconclusive: 18.4 µM [falling, single point]",–
COc1ccc2cc(CN(CC3CCCO3)C(=S)Nc3ccccc3)c(=O)[nH]c2c1 (stereo not given),"inconclusive: 29.1 µM [falling, single point]",–
CCOC(=O)c1c(NC(=O)C2COc3ccccc3O2)sc2c1CCN(Cc1ccccc1)C2 (stereo not given),–,inactive: -3.32%
S=C(NCc1ccccc1)N1CCN(Cc2ccc3c(c2)OCO3)CC1,"inconclusive: 32.6 µM [falling, single point]",–
CCCCC(=O)NC(=S)NNC(=O)c1ccc(OC)cc1,"inconclusive: 29.1 µM [falling, single point]",–
Cc1ccc(C2(c3noc(CN(C)CC4CCCCO4)n3)CCCC2)cc1 (stereo not given),"inconclusive: 20.6 µM [falling, single point]",–
